Measurements: article PMC11120535
Results are given in words; binding and its absence hold for the method and conditions named. Binding seen in cells or lysates may run through a third protein. Some entries that bind do so weakly or less than the wild type.

Protein sequences, listed by entry. Tags and fused reporters are not part of them.
UniProt P19091: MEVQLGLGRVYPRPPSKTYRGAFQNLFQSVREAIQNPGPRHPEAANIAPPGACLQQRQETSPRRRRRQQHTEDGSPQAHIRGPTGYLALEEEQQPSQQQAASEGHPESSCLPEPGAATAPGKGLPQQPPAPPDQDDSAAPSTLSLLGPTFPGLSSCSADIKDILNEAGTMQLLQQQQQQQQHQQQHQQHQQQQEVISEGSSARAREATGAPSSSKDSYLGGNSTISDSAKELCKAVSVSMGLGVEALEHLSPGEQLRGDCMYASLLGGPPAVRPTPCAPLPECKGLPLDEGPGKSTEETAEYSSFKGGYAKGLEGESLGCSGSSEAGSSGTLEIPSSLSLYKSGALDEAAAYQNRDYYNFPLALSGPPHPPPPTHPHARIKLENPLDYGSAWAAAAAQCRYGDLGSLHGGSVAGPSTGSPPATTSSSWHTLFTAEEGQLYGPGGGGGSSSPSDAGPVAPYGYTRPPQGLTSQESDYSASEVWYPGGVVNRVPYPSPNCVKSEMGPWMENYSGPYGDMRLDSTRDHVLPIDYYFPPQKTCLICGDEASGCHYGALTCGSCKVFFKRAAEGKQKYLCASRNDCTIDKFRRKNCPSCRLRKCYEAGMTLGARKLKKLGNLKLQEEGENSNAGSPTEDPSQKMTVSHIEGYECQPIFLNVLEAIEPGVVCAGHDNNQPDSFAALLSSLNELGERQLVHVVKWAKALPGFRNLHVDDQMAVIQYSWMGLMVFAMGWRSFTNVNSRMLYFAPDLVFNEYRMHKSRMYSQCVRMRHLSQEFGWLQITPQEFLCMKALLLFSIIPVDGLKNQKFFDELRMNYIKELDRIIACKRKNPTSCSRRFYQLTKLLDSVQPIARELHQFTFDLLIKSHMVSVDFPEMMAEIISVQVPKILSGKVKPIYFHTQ

Molecular target: T1, chromodomain Y-like protein (mouse (endogenous in mouse testes)) (UniProt Q9WTK2)
T1 sequence: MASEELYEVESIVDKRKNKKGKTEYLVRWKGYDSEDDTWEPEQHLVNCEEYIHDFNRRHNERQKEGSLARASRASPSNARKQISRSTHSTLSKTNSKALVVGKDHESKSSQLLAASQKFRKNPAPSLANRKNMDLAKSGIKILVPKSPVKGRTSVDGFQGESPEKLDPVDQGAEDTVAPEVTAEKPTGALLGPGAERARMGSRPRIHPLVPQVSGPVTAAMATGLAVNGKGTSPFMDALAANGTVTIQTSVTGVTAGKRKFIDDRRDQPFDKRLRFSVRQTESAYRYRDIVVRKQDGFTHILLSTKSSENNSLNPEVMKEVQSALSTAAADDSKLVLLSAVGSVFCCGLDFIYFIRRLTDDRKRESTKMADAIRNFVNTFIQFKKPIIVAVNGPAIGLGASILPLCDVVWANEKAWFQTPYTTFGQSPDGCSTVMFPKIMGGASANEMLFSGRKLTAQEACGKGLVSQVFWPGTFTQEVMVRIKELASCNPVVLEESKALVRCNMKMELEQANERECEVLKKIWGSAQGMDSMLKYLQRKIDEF
Assay: co-IP; wild-type mouse testes lysate immunoprecipitated with AR or CDYL antibodies (Catch and Release v2.0), IgG as control, 1 mg total protein, salt-free wash buffer, Western blot

binding: binds
Substance: androgen receptor (from UniProt P19091 1-899)
